PubChem BioAssay AID1508588 – Peter MacCallum Cancer Centre, 2020
The deposit covers about 18,000 reagents; below is an unselected part. Over the whole deposit, 790 (4.4%) are marked active. 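Calls rest on a combination of fold-change classes in drug and vehicle arms, not all shown here.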

Assay: 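Which gene losses make BRAF-mutant melanoma cells more responsive to vemurafenib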 (primary screen)
Cells: human WM266.4 melanoma cells (BRAF V600 mutant)
Reagent: siRNA pool against human genes, 40 nM
Time to read-out: 96 h from transfection to read-out
Challenge: vemurafenib 300 nM (about IC25), added 48 h after transfection, for 48 h; comparison arm got DMSO vehicle only
Read-out: 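Cell gain (DAPI nuclei at end minus before drug, mean of two replicates) and medium lactate by absorbance per cell, both as ratio to non-targeting siRNA, also grouped into fold-change classes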
Direction: cell gain with vemurafenib: higher = more cell gain than with non-targeting siRNA; lactate per cell with vemurafenib: higher = more lactate made per cell
Call rule: 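a knock-down counts as enhancing when its fold-change classes with vehicle and with vemurafenib, taken together, show a stronger drug effect on cell gain or lactate per cell; exact class pairs not stated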
Meaning of the calls: active = enhances vemurafenib effect; inactive = no enhancement seen

| Gene | cell gain with vemurafenib | lactate per cell with vemurafenib | activity call |
| --- | --- | --- | --- |
| TMEM14C (GeneID 51522) | 0.74 | 0.62 | inactive |
| SNF8 (GeneID 11267) | 0.61 | 0.75 | inactive |
| PLEKHA8 (GeneID 84725) | 0.26 | 1.24 | inactive |
| EGFL7 (GeneID 51162) | 0.22 | 2.15 | inactive |
| CENPL (GeneID 91687) | 0.57 | 0.98 | inactive |
| SLC3A1 (GeneID 6519) | 0.62 | 1.01 | inactive |
| ING5 (GeneID 84289) | 0.75 | 0.48 | active |
| OR51D1 (GeneID 390038) | 0.83 | 0.89 | inactive |
| MN1 (GeneID 4330) | 0.9 | 0.28 | inactive |
| KRT39 (GeneID 390792) | 0.47 | 2.15 | inactive |
| SLC2A11 (GeneID 66035) | 0.28 | 1.21 | inactive |
| ATG101 (GeneID 60673) | 0.96 | 1.04 | inactive |
| DSCR10 (GeneID 259234) | 0.66 | 0.8 | inactive |
| PHACTR1 (GeneID 221692) | 0.44 | 0.8 | inactive |
| MID1IP1 (GeneID 58526) | 0.26 | 1.32 | inactive |
| PTPN11 (GeneID 5781) | 0.76 | 0.92 | inactive |
| NTSR1 (GeneID 4923) | 0.55 | 0.66 | inactive |
| MAMLD1 (GeneID 10046) | 0.44 | 0.54 | inactive |
| PPP1R7 (GeneID 5510) | 0.59 | 0.63 | inactive |
| GPX6 (GeneID 257202) | 0.5 | 0.44 | inactive |
| MAPK12 (GeneID 6300) | 0.67 | 0.74 | inactive |
| TMPRSS11F (GeneID 389208) | 0.66 | 0.66 | inactive |
| CDX4 (GeneID 1046) | 0.92 | 0.76 | inactive |
| RAB8B (GeneID 51762) | 0.81 | 0.88 | inactive |
| POM121L2 (GeneID 94026) | 0.51 | 1.57 | inactive |
| HK3 (GeneID 3101) | 0.26 | 1.1 | inactive |
| CCDC134 (GeneID 79879) | 0.2 | 1.2 | inactive |
| TMEM200C (GeneID 645369) | 1.02 | 1.13 | inactive |
| OLR1 (GeneID 4973) | 0.74 | 0.38 | inactive |
| OR2M5 (GeneID 127059) | 0.6 | 0.46 | inactive |
| HBQ1 (GeneID 3049) | 0.4 | 2.16 | inactive |
| EPAS1 (GeneID 2034) | 0.59 | 0.55 | inactive |
| RAD21 (GeneID 5885) | 0.12 | 0.6 | inactive |
| TRIM43B (GeneID 653192) | 1 | 0.82 | inactive |
| ZNF784 (GeneID 147808) | 0.69 | 0.64 | inactive |
| PHTF1 (GeneID 10745) | 0.75 | 0.83 | inactive |
| PRCP (GeneID 5547) | 0.92 | 0.88 | inactive |
| WFDC3 (GeneID 140686) | 0.26 | 1.04 | inactive |
| PAM16 (GeneID 51025) | 0.54 | 0.46 | inactive |
| ATP6V1A (GeneID 523) | 0.63 | 0.91 | inactive |
| ALDOA (GeneID 226) | -0.17 | 5.53 | inactive |
| HCRT (GeneID 3060) | 1.1 | 0.36 | inactive |
| AMZ2 (GeneID 51321) | 1.39 | 0.58 | inactive |
| OR2T10 (GeneID 127069) | 0.5 | 0.64 | inactive |
| SPATA18 (GeneID 132671) | 0.68 | 0.52 | inactive |
| FER (GeneID 2241) | 0.67 | 0.56 | inactive |
| BSCL2 (GeneID 26580) | 0.66 | 0.45 | active |
| CELA3A (GeneID 10136) | 0.76 | 0.9 | inactive |
| RAB15 (GeneID 376267) | 0.66 | 0.66 | inactive |
| HS6ST2 (GeneID 90161) | 1.01 | 0.46 | inactive |
| LHFPL3 (GeneID 375612) | 0.77 | 0.53 | inactive |
| UROS (GeneID 7390) | 0.8 | 0.63 | inactive |
| MMP16 (GeneID 4325) | 0.68 | 0.44 | inactive |
| BRK1 (GeneID 55845) | 0.49 | 0.84 | inactive |
| FDPS (GeneID 2224) | 0.85 | 0.57 | inactive |
| ABCB8 (GeneID 11194) | 1.01 | 0.4 | inactive |
| ZSCAN9 (GeneID 7746) | 1 | 0.38 | inactive |

6 of these entries, set out differently.
Gene | cell gain with vemurafenib | lactate per cell with vemurafenib | activity call
POM121L2 (GeneID 94026) | 0.51 | 1.57 | inactive
HK3 (GeneID 3101) | 0.26 | 1.1 | inactive
CCDC134 (GeneID 79879) | 0.2 | 1.2 | inactive
TMEM200C (GeneID 645369) | 1.02 | 1.13 | inactive
OLR1 (GeneID 4973) | 0.74 | 0.38 | inactive
OR2M5 (GeneID 127059) | 0.6 | 0.46 | inactive
